Measurements as given in the supplement of paper PMC9135407.
Values joined by “and” are separate entries in the source; they are usually repeats but may differ in a detail not shown here. Equal entries are not always repeated. Structures can show the parent of a compound that is named as a salt. ± gives the standard deviation of the averaged measurements. The list shows a part of the results. Plates or batches differ in their baseline, so values are only roughly comparable.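 Primary human stellate myofibroblasts activated in culture; inactivation shown by regained lipid droplets. Readout: fraction of Hoechst-counted cells exceeding a per-plate Bodipy threshold, duplicate wells, each plate with DMSO negative and nortriptyline positive controls. Hits: control-normalized score beyond the plate's top-tenth-percentile nortriptyline wells, or among its three best wells. Final well concentrations unstated.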

Test system: primary human hepatic stellate cells (donor 1)
Assay: percent Bodipy-positive cells; higher = more lipid droplet accumulation
Conditions: 48 h
[1] = library stock concentration: 80 uM
[2] = library stock concentration: 400 uM
[3] = library stock concentration: 2 mM
[4] = library stock concentration: 3.33 mM
[5] = library stock concentration: 10 mM
[6] = library stock concentration: 1 mM

## Nc1ccc2ncnc(NCCc3ccc(Oc4ccccc4)cc3)c2c1
[1]
  percent Bodipy-positive cells: 12.92 ± 0.037%
[2]
  percent Bodipy-positive cells: 17.6 ± 1.4%
[3]
  percent Bodipy-positive cells: 14.5 ± 3%
[4]
  percent Bodipy-positive cells: 10.7 ± 1%

## Oc1c(Br)cc(Br)c2cccnc12 [Broxyquinoline]
[4]
  percent Bodipy-positive cells: 9.97 ± 0.6%
[5]
  percent Bodipy-positive cells: 21.9% and 14.7%

## COc1cc2c(cc1OC)-c1cc3nc4ccccc4nc3n1C(C)(C)C2
[5]
  percent Bodipy-positive cells: 58 ± 9%

## CCC(=O)O[C@H]1CC[C@H]2[C@@H]3CCc4cc(O)ccc4[C@H]3CC[C@]12C [Estradiol propionate]
Library stock concentration: 6.1 mM
  percent Bodipy-positive cells: 65.1 ± 5.8%
[5]
  percent Bodipy-positive cells: 71.9 ± 2.5%

## O=C(Nc1cc(C(F)(F)F)cc(C(F)(F)F)c1)c1cc(Cl)ccc1O [IKK-2 Inhibitor V]
[4]
  percent Bodipy-positive cells: 13.8 ± 3.8%

## O=C(Nc1cc(C(F)(F)F)cc(C(F)(F)F)c1)c1cc(Cl)ccc1O
[4]
  percent Bodipy-positive cells: 67.2 ± 5.5%

## CN(C)[C@@H]1C(O)=C(C(N)=O)C(=O)[C@@]2(O)C(O)=C3C(=O)c4c(O)cccc4[C@@](C)(O)[C@H]3C[C@@H]12 [Tetracycline hydrochloride]
  percent Bodipy-positive cells: 22.9 ± 7.7%
[5]
  percent Bodipy-positive cells: 16.2 ± 2.8%

## CN(C)[C@@H]1C(O)=C(C(N)=O)C(=O)[C@@]2(O)C(O)=C3C(=O)c4c(O)cccc4[C@@](C)(O)[C@H]3C[C@@H]12 [Tetracycline]
Library stock concentration: 4.5 mM
  percent Bodipy-positive cells: 7.2 ± 1.5%

## CN(C)[C@@H]1C(O)=C(C(N)=O)C(=O)[C@@]2(O)C(O)=C3C(=O)c4c(O)cccc4[C@@](C)(O)[C@H]3C[C@@H]12
[5]
  percent Bodipy-positive cells: 33.2 ± 2.3%

## CCN(CC)CCNC(=O)c1ccc(NS(C)(=O)=O)cc1 [Sematilide monohydrochloride monohydrate]
[5]
  percent Bodipy-positive cells: 35.3 ± 13%

## O=C1N[C@H](C(=O)O)CS1 [4-Thiazolidinecarboxylic acid, 2-oxo-, (R)- [CAS]]
[5]
  percent Bodipy-positive cells: 8.42 ± 7%

## C[C@H](N[C@@H](CCc1ccccc1)C(=O)O)C(=O)N1CCC[C@H]1C(=O)O [Enalaprilat]
Library stock concentration: 5.7 mM
  percent Bodipy-positive cells: 7.34 ± 3.9%

## C[C@H](N[C@@H](CCc1ccccc1)C(=O)O)C(=O)N1CCC[C@H]1C(=O)O [Enalaprilat Dihydrate]
[4]
  percent Bodipy-positive cells: 10.2 ± 0.79%
[5]
  percent Bodipy-positive cells: 26.3 ± 22%

## C[C@H](N[C@@H](CCc1ccccc1)C(=O)O)C(=O)N1CCC[C@H]1C(=O)O
[5]
  percent Bodipy-positive cells: 7.5 ± 4.2%

## C[C@H](N[C@@H](CCc1ccccc1)C(=O)O)C(=O)N1CCC[C@H]1C(=O)O [Enalaprilat dihydrate]
[5]
  percent Bodipy-positive cells: 13.9 ± 1.2%

## NC(=O)N1CCC(CC(=O)N2CCC([C@H]3c4ncc(Br)cc4CCc4cc(Cl)cc(Br)c43)CC2)CC1 [Lonafarnib]
[4]
  percent Bodipy-positive cells: 18.2 ± 0.41%
[5]
  percent Bodipy-positive cells: 64.2 ± 5.9%

## O=C1NC(=O)/C(=C\c2cccc(C(F)(F)F)c2)S1 [PIM12 kinase inhibitor V]
[1]
  percent Bodipy-positive cells: 9.46 ± 6.5%
[2]
  percent Bodipy-positive cells: 13 ± 4.1%
[3]
  percent Bodipy-positive cells: 9.49 ± 3.1%
[5]
  percent Bodipy-positive cells: 7.13 ± 2.1%

## CC(=O)[C@@]12O[C@](C)(c3ccccc3)O[C@@H]1C[C@H]1[C@@H]3CCC4=CC(=O)CC[C@]4(C)[C@H]3CC[C@@]12C
[5]
  percent Bodipy-positive cells: 19.7 ± 0.45%

## NC(=O)N[C@@H](CCC(=O)O)C(=O)O
[5]
  percent Bodipy-positive cells: 30.9 ± 16%

## COCCCC/C(=N\OCCN)c1ccc(C(F)(F)F)cc1 [Fluvoxamine]
[5]
  percent Bodipy-positive cells: 66 ± 8.4%

## COCCCC/C(=N\OCCN)c1ccc(C(F)(F)F)cc1 [Fluvoxamine maleate]
  percent Bodipy-positive cells: 52 ± 13%
[4]
  percent Bodipy-positive cells: 38.3 ± 5.6%
[5]
  percent Bodipy-positive cells: 61.7% and 51.5%

## CN(C)CCC=C1c2ccccc2Sc2ccc(Cl)cc21 [Chlorprothixene]
[5]
  percent Bodipy-positive cells: 98.2 ± 1.9%

## CCCCCCCCCCCCCCCCOC[C@H](COP(=O)([O-])OCC[N+](C)(C)C)SC(=O)CCCCCC [Heptanoyl thio-PC]
[6]
  percent Bodipy-positive cells: 16.5 ± 3.1%

## C[C@]12CCC(=O)C=C1CC[C@@H]1[C@@H]2C(=O)C[C@@]2(C)[C@H]1CC[C@]2(O)C(=O)CO [Cortisone]
  percent Bodipy-positive cells: 23.8 ± 3.2%
[5]
  percent Bodipy-positive cells: 38.2 ± 4.8%

## C[C@]12CCC(=O)C=C1CC[C@@H]1[C@@H]2C(=O)C[C@@]2(C)[C@H]1CC[C@]2(O)C(=O)CO
[5]
  percent Bodipy-positive cells: 3.98 ± 1.4%

## COC(=O)[C@H](c1ccccc1Cl)N1CCc2sccc2C1 [Clopidogrel sulfate]
Library stock concentration: 4.8 mM
  percent Bodipy-positive cells: 9.27 ± 0.73%
Library stock concentration: 6.2 mM
  percent Bodipy-positive cells: 5.35 ± 0.37%
[5]
  percent Bodipy-positive cells: 36.7 ± 3%

## COC(=O)[C@H](c1ccccc1Cl)N1CCc2sccc2C1 [clopidogrel]
[5]
  percent Bodipy-positive cells: 35.4 ± 2.2%

## COC(=O)[C@H](c1ccccc1Cl)N1CCc2sccc2C1 [Clopidogrel]
[4]
  percent Bodipy-positive cells: 9.83 ± 5.2%
[5]
  percent Bodipy-positive cells: 20.5 ± 0.92%

## CC/C=C\C/C=C\C/C=C\C/C=C\C/C=C\CCCC(=O)O [Eicosapentaenoic Acid]
[6]
  percent Bodipy-positive cells: 10.6 ± 1.9%

## CC/C=C\C/C=C\C/C=C\C/C=C\C/C=C\CCCC(=O)O [Eicosapentaenoic acid (20:5 n-3)]
[6]
  percent Bodipy-positive cells: 5.67 ± 4.6%

## O=C1/C(=C/c2cccs2)CC/C1=C\c1cccs1
[5]
  percent Bodipy-positive cells: 32.4 ± 12%

## CCCCC1CCC(c2nc(-c3ccncc3)no2)CC1 (stereo unspecified)
[6]
  percent Bodipy-positive cells: 6.76 ± 0.13%
[5]
  percent Bodipy-positive cells: 9.54 ± 4.6%

## CC1CCN(c2cc(N3CCN(C)CC3)ccc2NC(=O)c2cc(C#N)c[nH]2)CC1
[5]
  percent Bodipy-positive cells: 92.9 ± 4.3%

## COc1ccc(NC(=O)c2cc(OCCCN(C)C)nn2Cc2ccccc2)cc1.Cl [CFM 1571 hydrochloride]
[5]
  percent Bodipy-positive cells: 71.4 ± 2.7%

## Nc1ccc(S(=O)(=O)NC(=O)c2ccccc2)cc1 [Sulfabenzamide]
  percent Bodipy-positive cells: 10.4 ± 7.6%
Library stock concentration: 7.2 mM
  percent Bodipy-positive cells: 16 ± 2.3%
[5]
  percent Bodipy-positive cells: 14.3 ± 6%

## CCC=CCC=CCC=CCC=CCCCCC(=O)OCC [Stearidonic Acid ethyl ester]
[6]
  percent Bodipy-positive cells: 13.8 ± 3.2%

## C[N+](C)(C)CCOP(=O)(O)OP(=O)([O-])OC[C@H]1O[C@@H](n2ccc(N)nc2=O)[C@H](O)[C@@H]1O [Cytidine 5'-diphosphocholine sodium salt hydrate]
[5]
  percent Bodipy-positive cells: 35.6 ± 9.9%

## C[N+](C)(C)CCOP(=O)(O)OP(=O)([O-])OC[C@H]1O[C@@H](n2ccc(N)nc2=O)[C@H](O)[C@@H]1O [Citicoline]
[5]
  percent Bodipy-positive cells: 37 ± 6.1%

## CCCCCOc1ccc(-c2ccc(-c3ccc(C(=O)N[C@H]4C[C@@H](O)[C@@H](O)NC(=O)[C@@H]5[C@@H](O)[C@@H](C)CN5C(=O)[C@H]([C@@H](C)O)NC(=O)[C@H]([C@H](O)[C@@H](O)c5ccc(O)cc5)NC(=O)[C@@H]5C[C@@H](O)CN5C(=O)[C@H]([C@@H](C)O)NC4=O)cc3)cc2)cc1
[4]
  percent Bodipy-positive cells: 11.9 ± 0.73%
[5]
  percent Bodipy-positive cells: 64.2 ± 2.8%

## C=C(CC)C(=O)c1ccc(OCC(=O)O)c(Cl)c1Cl [Ethacrynic acid]
  percent Bodipy-positive cells: 17.8 ± 2%
Library stock concentration: 6.6 mM
  percent Bodipy-positive cells: 8.61% and 5.09%
[5]
  percent Bodipy-positive cells: 4.33 ± 0.77%

## CC(C)c1nc(N(C)S(C)(=O)=O)nc(-c2ccc(F)cc2)c1/C=C/[C@@H](O)C[C@@H](O)CC(=O)O [Rosuvastatin Calcium]
[4]
  percent Bodipy-positive cells: 7.22 ± 2.9%
[5]
  percent Bodipy-positive cells: 31.8 ± 25%

## CC(C)c1nc(N(C)S(C)(=O)=O)nc(-c2ccc(F)cc2)c1/C=C/[C@@H](O)C[C@@H](O)CC(=O)O [Rosuvastatin]
[5]
  percent Bodipy-positive cells: 36.6 ± 1.1%
